PubChem BioAssay AID1259425, University of Nebraska Medical Center | 2018
Screen: 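Seek colon cancer weak points whose silencing resembles KSR1 loss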 (primary screen). Cell system: HCT116 human colon cancer cells. Reagent: siRNA pool against human genes, 50 nM siRNA. Measurement: 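mRNA of six signature genes measured together by branched-DNA assay after 50 nM siRNA pool, blank removed, divided by geometric mean of two housekeeping genes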. Scale: BNIP3L mRNA: higher = more BNIP3L transcript after knockdown; NDRG1 mRNA: higher = more NDRG1 transcript after knockdown; BNIP3 mRNA: higher = more BNIP3 transcript after knockdown; ALDOC mRNA: higher = more ALDOC transcript after knockdown; ACSL5 mRNA: higher = more ACSL5 transcript after knockdown.
Here is a random part of about 14,000 reagents tested. Reagents against one gene are numbered here. No sequences are given here. Not stated in the record: the time to read-out.

gene | reagent no. | BNIP3L mRNA, set 1 | NDRG1 mRNA, set 1 | BNIP3 mRNA, set 1 | ALDOC mRNA, set 1 | ACSL5 mRNA, set 1
ABCC4 | 1 | 0.149 | 0.113 | 0.309 | 0.0312 | 0.147
KCNIP2 | 1 | 0.0799 | 0.285 | 0.118 | 0.024 | 0.192
MSX1 | 1 | 0.0995 | 0.25 | 0.245 | 0.0125 | 0.0706
INHA | 1 | 0.0548 | 0.304 | 0.24 | 0.047 | 0.203
CYLC2 | 1 | 0.0786 | 0.0687 | 0.208 | 0.0203 | 0.116
IL32 | 1 | 0.14 | 0.3 | 0.319 | 0.0257 | 0.141
TMEM257 (retired record) | 1 | 0.161 | 0.77 | 0.713 | 0.0644 | 0.662
CRLF3 | 1 | 0.09 | 0.217 | 0.218 | 0.0144 | 0.352
SPPL2B | 1 | 0.341 | 0.155 | 0.412 | 0.0302 | 0.249
NME8 | 1 | 0.0763 | 0.0833 | 0.306 | 0.0133 | 0.145
GHITM | 1 | 0.0952 | 0.221 | 0.398 | 0.0135 | 0.285
CAP1 | 1 | 0.249 | 0.277 | 0.47 | 0.0714 | 0.161
EPHA7 | 1 | 0.088 | 0.134 | 0.273 | 0.0146 | 0.199
MTAP | 1 | 0.139 | 0.208 | 0.227 | 0.0169 | 0.11
RNF181 | 1 | 0.183 | 0.65 | 0.522 | 0.0221 | 0.172
PPP1R1A | 1 | 0.0945 | 0.118 | 0.25 | 0.0322 | 0.0788
GAS6 | 1 | 0.159 | 1.6 | 0.372 | 0.0254 | 0.193
MUC13 | 1 | 0.106 | 0.2 | 0.327 | 0.0254 | 0.307
SLCO1C1 | 1 | 1.16 | 2.78 | 2.03 | 0.37 | 0.112
ARHGAP44 | 1 | 0.13 | 0.205 | 0.319 | 0.0252 | 0.264
SGK3 | 1 | 0.0513 | 0.159 | 0.28 | 0.00742 | 0.166
IL20RA | 1 | 0.0696 | 0.317 | 0.241 | 0.0292 | 0.165
NTNG2 | 1 | 0.109 | 0.0815 | 0.257 | 0.0254 | 0.163
PNMA3 | 1 | 0.0549 | 0.205 | 0.34 | 0.00876 | 0.141
MPHOSPH8 | 1 | 0.0996 | 0.144 | 0.273 | 0.0233 | 0.141
OXSR1 | 1 | 0.0559 | 0.0727 | 0.2 | 0.00477 | 0.166
GLMN | 1 | 0.0816 | 0.115 | 0.263 | 0.0657 | 0.13
CDH24 | 1 | 0.101 | 0.254 | 0.245 | 0.0065 | 0.142
ZNF85 | 1 | 0.0694 | 0.102 | 0.303 | 0.00656 | 0.161
RNF19A | 1 | 0.0991 | 0.0964 | 0.503 | 0.0163 | 0.233
ZNF611 | 1 | 0.128 | 0.337 | 0.244 | 0.116 | 0.225
INIP | 1 | 0.16 | 0.101 | 0.412 | 0.0489 | 0.193
WWC3 | 1 | 0.0977 | 0.211 | 0.263 | 0.0349 | 0.291
SPG11 | 1 | 0.1 | 0.466 | 0.347 | 0.0192 | 0.116
HES6 | 1 | 0.33 | 0.915 | 0.468 | 0.0189 | 0.119
MKLN1 | 1 | 0.0732 | 0.0789 | 0.21 | 0.0101 | 0.135
HYAL1 | 1 | 0.0321 | 0.142 | 0.296 | 0.019 | 0.121
TMEM35A | 1 | 0.0871 | 1.04 | 0.5 | 0.0442 | 0.59
CHAF1A | 1 | 0.223 | 0.38 | 0.481 | 0.0264 | 0.199
PTGDR | 1 | 0.246 | 0.238 | 0.298 | 0.0473 | 0.157
APLP1 | 1 | 0.125 | 0.197 | 0.321 | 0.0126 | 0.313
ZNF280D | 1 | 0.675 | 2.49 | 3.85 | 0.398 | 0.269
NDUFB5 | 1 | 0.159 | 0.308 | 0.28 | 0.0543 | 0.212
NOL9 | 1 | 0.173 | 0.0713 | 0.326 | 0.0192 | 0.201
POLR2A | 1 | 0.146 | 0.254 | 0.38 | 0.0491 | 0.231
EID1 | 1 | 0.0551 | 0.14 | 0.259 | 0.0344 | 0.138
DDX39A | 1 | 0.0621 | 0.192 | 0.202 | 0.0135 | 0.284
CHKB | 1 | 0.221 | 0.628 | 0.382 | 0.00914 | 0.132
CRYBA2 | 1 | 0.107 | 0.305 | 0.308 | 0.0185 | 0.259
MICAL2 | 1 | 0.155 | 0.134 | 0.468 | 0.0297 | 0.139
MICAL2 | 2 | 0.139 | 0.138 | 0.29 | 0.0357 | 0.12
